# Data source: PubChem BioAssay AID1259405 (NCATS, 2018)
# Purpose: 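Knock-downs that lift recombinant protein yield in hamster ovary cells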 (primary screen)
# System: Chinese hamster CHO-K1 ovary cells with stable secreted eGFP expression
# Reagent: single siRNA against mouse genes, 0.8 pmol siRNA per well (2 µl of 400 nM stock)
# Timing: 3 days
# Detection: 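Per-well intracellular GFP measured by laser scanning cytometry, plus viability from ATP luminescence, each relative to plate median of non-targeting control wells, in %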
# Scale: GFP, % of control: higher = more GFP per well, higher productivity; viability (ATP), % of control: higher = more viable cells (more ATP)
# Hit rule: 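a knock-down is called active if GFP reaches 120% or more of non-targeting control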
# This is an unselected part of about 50,000 deposited reagents. About 4,000 of all reagents (8%) were called active. 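Mouse siRNA library applied to hamster cells; one well for each siRNA.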 A number with no mark means an inactive call. The numbers tell different reagents against one gene apart. No sequences are given here.
target gene,siRNA no.,"GFP, % of control","viability (ATP), % of control"
Or10w1 (olfactory receptor family 10 subfamily W member 1),1,65.4,61.5
Or10w1 (olfactory receptor family 10 subfamily W member 1),2,104,116
Or10w1 (olfactory receptor family 10 subfamily W member 1),3,95.7,84.8
"Lgals3bp (lectin, galactoside-binding, soluble, 3 binding protein)",1,113,102
"Lgals3bp (lectin, galactoside-binding, soluble, 3 binding protein)",2,73.9,84.3
"Lgals3bp (lectin, galactoside-binding, soluble, 3 binding protein)",3,103,75
Iqcb1 (IQ calmodulin-binding motif containing 1),1,84.6,60.5
Iqcb1 (IQ calmodulin-binding motif containing 1),2,78.2,76.6
Iqcb1 (IQ calmodulin-binding motif containing 1),3,77.3,54.8
Aoc2 (amine oxidase copper containing 2),1,65.3,83.3
Aoc2 (amine oxidase copper containing 2),2,57.5,89.4
Aoc2 (amine oxidase copper containing 2),3,72.2,79.1
Spatc1 (spermatogenesis and centriole associated 1),1,85.4,77.9
Spatc1 (spermatogenesis and centriole associated 1),2,88.1,108
Spatc1 (spermatogenesis and centriole associated 1),3,95.4,97.1
Nup50l (nucleoporin 50 like),1,67,79.6
Nup50l (nucleoporin 50 like),2,96.5,63.8
Nup50l (nucleoporin 50 like),3,64.9,53.1
Sox7 (SRY (sex determining region Y)-box 7),1,87.9,98.5
Sox7 (SRY (sex determining region Y)-box 7),2,73.3,51.5
Sox7 (SRY (sex determining region Y)-box 7),3,67.1,103
Camk4 (calcium/calmodulin-dependent protein kinase IV),1,47.9,57.8
Ifne (interferon epsilon),1,50.3,54.8
Ifne (interferon epsilon),2,92.2,43.5
Ifne (interferon epsilon),3,67.7,64.6
Vnn1 (vanin 1),1,91.8,82.6
Vnn1 (vanin 1),2,76.4,66
Vnn1 (vanin 1),3,140 (active),149
"Lysmd4 (LysM, putative peptidoglycan-binding, domain containing 4)",1,30.2,38.8
"Lysmd4 (LysM, putative peptidoglycan-binding, domain containing 4)",2,49.5,64
"Lysmd4 (LysM, putative peptidoglycan-binding, domain containing 4)",3,63.4,96.3
Fbxw4 (F-box and WD-40 domain protein 4),1,76.3,50.2
Fbxw4 (F-box and WD-40 domain protein 4),2,56.7,42.7
Fbxw4 (F-box and WD-40 domain protein 4),3,164 (active),102
Il6st (interleukin 6 signal transducer),1,82.9,87
Il6st (interleukin 6 signal transducer),2,77.2,64
Il6st (interleukin 6 signal transducer),3,65.9,71.4
Or10d1b (olfactory receptor family 10 subfamily D member 1B),1,135 (active),73.6
Or10d1b (olfactory receptor family 10 subfamily D member 1B),2,85.7,89.7
Or10d1b (olfactory receptor family 10 subfamily D member 1B),3,80,118
Or14a257 (olfactory receptor family 14 subfamily A member 257),1,87.2,104
Or14a257 (olfactory receptor family 14 subfamily A member 257),2,86.9,43.2
Or14a257 (olfactory receptor family 14 subfamily A member 257),3,78.9,59
Cited4,1,151 (active),118
Cited4,2,108,98.5
Cited4,3,62.2,96.1
Cit (citron),1,95.2,74.6
Prkcsh (protein kinase C substrate 80K-H),1,79.3,40.8
Prkcsh (protein kinase C substrate 80K-H),2,65.7,87.7
Prkcsh (protein kinase C substrate 80K-H),3,66.4,74.8
Cxcr3 (C-X-C motif chemokine receptor 3),1,111,80.1
Cxcr3 (C-X-C motif chemokine receptor 3),2,78.1,61.5
Cxcr3 (C-X-C motif chemokine receptor 3),3,32,44.3
Dedd2 (death effector domain-containing DNA binding protein 2),1,95,121
Dedd2 (death effector domain-containing DNA binding protein 2),2,103,79.6
Dedd2 (death effector domain-containing DNA binding protein 2),3,73.6,83.3

Continued, starting with the last 4 of the part before.
target gene,siRNA no.,"GFP, % of control","viability (ATP), % of control"
Cxcr3 (C-X-C motif chemokine receptor 3),3,32,44.3
Dedd2 (death effector domain-containing DNA binding protein 2),1,95,121
Dedd2 (death effector domain-containing DNA binding protein 2),2,103,79.6
Dedd2 (death effector domain-containing DNA binding protein 2),3,73.6,83.3
"Actg2 (actin, gamma 2, smooth muscle, enteric)",1,63.9,51.6
"Actg2 (actin, gamma 2, smooth muscle, enteric)",2,90.2,77.9
"Actg2 (actin, gamma 2, smooth muscle, enteric)",3,105,63.2
Mtus1 (mitochondrial tumor suppressor 1),1,44.4,78.4
Mtus1 (mitochondrial tumor suppressor 1),2,77.4,87.3
Mtus1 (mitochondrial tumor suppressor 1),3,82,71.1
"Fam120b (family with sequence similarity 120, member B)",1,196 (active),85.2
"Fam120b (family with sequence similarity 120, member B)",2,83.9,78
"Fam120b (family with sequence similarity 120, member B)",3,84.4,117
"Abca8b (ATP-binding cassette, sub-family A member 8b)",1,94.1,76.7
"Abca8b (ATP-binding cassette, sub-family A member 8b)",2,57.4,78.9
"Abca8b (ATP-binding cassette, sub-family A member 8b)",3,75.9,82.1
Usf2 (upstream transcription factor 2),1,51.6,75.9
Usf2 (upstream transcription factor 2),2,76.5,77.2
Usf2 (upstream transcription factor 2),3,80.2,103
"Gprc5b (G protein-coupled receptor, family C, group 5, member B)",1,50,59.2
"Gprc5b (G protein-coupled receptor, family C, group 5, member B)",2,72.3,74.8
"Gprc5b (G protein-coupled receptor, family C, group 5, member B)",3,60.5,78.2
Zc3h8 (zinc finger CCCH type containing 8),1,58.5,76.1
Zc3h8 (zinc finger CCCH type containing 8),2,69.7,73.3
Zc3h8 (zinc finger CCCH type containing 8),3,55.3,94.5
Npc2 (NPC intracellular cholesterol transporter 2),1,99.5,98.7
Npc2 (NPC intracellular cholesterol transporter 2),2,138 (active),74.8
Npc2 (NPC intracellular cholesterol transporter 2),3,84.4,74.4
"Etfb (electron transferring flavoprotein, beta polypeptide)",1,111,110
"Etfb (electron transferring flavoprotein, beta polypeptide)",2,69.9,73.5
"Etfb (electron transferring flavoprotein, beta polypeptide)",3,65.6,57.2
Tcerg1l (transcription elongation regulator 1-like),1,100,118
Tcerg1l (transcription elongation regulator 1-like),2,76.7,109
Tcerg1l (transcription elongation regulator 1-like),3,80,92
Cavin3 (caveolae associated 3),1,69.1,84.3
Cavin3 (caveolae associated 3),2,70.2,63
Cavin3 (caveolae associated 3),3,80,94.6
Allc (allantoicase),1,65.8,23.9
Allc (allantoicase),2,89,90.6
Allc (allantoicase),3,43.5,42.6
"Fuca2 (fucosidase, alpha-L- 2, plasma)",1,79.1,65.1
"Fuca2 (fucosidase, alpha-L- 2, plasma)",2,112,113
"Fuca2 (fucosidase, alpha-L- 2, plasma)",3,64,66.8
Sox2 (SRY (sex determining region Y)-box 2),1,90.1,87.9
Sox2 (SRY (sex determining region Y)-box 2),2,112,79
Sox2 (SRY (sex determining region Y)-box 2),3,85.3,87.7
B3galt2,1,107,106
B3galt2,2,188 (active),46.7
B3galt2,3,111,111
"Rcn3 (reticulocalbin 3, EF-hand calcium binding domain)",1,124 (active),136
"Rcn3 (reticulocalbin 3, EF-hand calcium binding domain)",2,74.2,69
Kdm2b (lysine (K)-specific demethylase 2B),1,82.7,66.7
Kdm2b (lysine (K)-specific demethylase 2B),2,94.5,71.8
Kdm2b (lysine (K)-specific demethylase 2B),3,91,77.2
Pisd (phosphatidylserine decarboxylase),1,71.7,59.3
Pisd (phosphatidylserine decarboxylase),2,69.2,41.7
Pisd (phosphatidylserine decarboxylase),3,72.6,89.3
